Test [1] has as its target T1, aromatase (human (endogenous in JEG-3 and in human placental tissues)) (UniProt P11511).
T1 sequence: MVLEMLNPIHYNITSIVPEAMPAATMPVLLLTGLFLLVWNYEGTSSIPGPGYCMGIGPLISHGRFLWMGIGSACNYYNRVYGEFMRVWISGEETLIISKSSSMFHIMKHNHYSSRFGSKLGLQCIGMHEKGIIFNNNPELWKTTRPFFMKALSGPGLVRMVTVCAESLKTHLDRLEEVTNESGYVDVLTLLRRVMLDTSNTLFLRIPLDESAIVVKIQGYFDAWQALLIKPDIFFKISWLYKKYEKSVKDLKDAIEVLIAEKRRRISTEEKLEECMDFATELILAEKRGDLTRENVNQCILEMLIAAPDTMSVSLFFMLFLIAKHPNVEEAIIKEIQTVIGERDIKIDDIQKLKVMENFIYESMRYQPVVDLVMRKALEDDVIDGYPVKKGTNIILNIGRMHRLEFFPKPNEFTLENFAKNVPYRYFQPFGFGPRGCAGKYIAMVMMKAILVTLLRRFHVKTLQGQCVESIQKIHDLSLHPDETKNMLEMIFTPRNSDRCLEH
The experiment in a line: proximity ligation; in situ PLA on human placental tissues; anti-aromatase rabbit polyclonal 1:100 and anti-RGS2 mouse monoclonal 1:50; Duolink detection (red dots).

For test [2], the target named is T1, aromatase (human (endogenous in JEG-3 and in human placental tissues)). The experiment in a line: co-IP; endogenous proteins in JEG-3 lysate; lysis buffer 100 mM NaCl, 50 mM Tris-HCl (pH 8.0), 5 mM EDTA, 1% Brij35; antibody against the bait or rabbit IgG with protein A/G plus agarose; beads washed five times; western blot. In general terms: Immunoblotting shows a protein as a band on a membrane.

Results are given in words; binding and its absence hold for the method and conditions named. Binding seen in cells or lysates may run through a third protein. Some binding calls cover weakened binding; strength is not graded here.

Binding data for one molecule are collected here from paper PMC9898290.

B1: regulator of G-protein signaling 2 (RGS2) (protein, UniProt P41220 1-211)
chain: MQSAMFLAVQHDCRPMDKSAGSGHKSEEKREKMKRTLLKDWKTRLSYFLQNSSTPGKPKTGKKSKQQAFIKPSPEEAQLWSEAFDELLASKYGLAAFRAFLKSEFCEENIEFWLACEDFKKTKSPQKLSSKARKIYTDFIEKEAPKEINIDFQTKTLIAQNIQEATSGCFTTAQKRVYSLMENNSYPRFLESEFYQDLCKKPQITTEPHAT
As to B1, the binding result in test [1] and in test [2] was “binds” throughout.
